The text below walks through data of publication PMC8464816.

Protein sequences, listed by entry. Tags and fused reporters are not part of them. Residues count along the entry.
UniProt P35869, residues 11-848: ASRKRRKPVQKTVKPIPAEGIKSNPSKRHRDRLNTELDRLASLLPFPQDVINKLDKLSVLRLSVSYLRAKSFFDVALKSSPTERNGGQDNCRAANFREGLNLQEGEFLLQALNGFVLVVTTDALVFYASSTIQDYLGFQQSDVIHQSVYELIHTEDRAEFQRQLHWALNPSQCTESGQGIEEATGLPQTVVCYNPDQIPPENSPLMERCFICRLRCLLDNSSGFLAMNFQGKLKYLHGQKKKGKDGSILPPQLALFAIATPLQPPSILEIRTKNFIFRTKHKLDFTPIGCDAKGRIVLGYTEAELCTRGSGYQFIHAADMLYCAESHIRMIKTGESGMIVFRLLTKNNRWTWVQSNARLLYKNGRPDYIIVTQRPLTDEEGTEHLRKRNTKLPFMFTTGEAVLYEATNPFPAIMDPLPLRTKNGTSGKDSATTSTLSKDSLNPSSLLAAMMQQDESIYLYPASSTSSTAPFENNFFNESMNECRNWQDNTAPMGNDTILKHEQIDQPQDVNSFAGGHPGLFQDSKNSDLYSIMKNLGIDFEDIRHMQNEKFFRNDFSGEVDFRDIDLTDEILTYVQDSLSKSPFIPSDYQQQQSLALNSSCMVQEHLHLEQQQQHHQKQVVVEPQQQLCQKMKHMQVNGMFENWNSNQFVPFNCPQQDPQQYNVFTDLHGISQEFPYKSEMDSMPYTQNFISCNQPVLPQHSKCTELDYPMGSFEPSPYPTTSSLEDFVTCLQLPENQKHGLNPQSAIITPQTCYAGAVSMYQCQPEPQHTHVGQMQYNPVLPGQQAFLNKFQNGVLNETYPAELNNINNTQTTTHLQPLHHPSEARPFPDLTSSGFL

No constants are given. Whether binding was seen depends on the method and setting. Binding seen in cells or lysates may run through a third protein. Some binding calls cover weakened binding; strength is not graded here.

The target of this experiment is aryl hydrocarbon receptor (human (endogenous in A549)) (UniProt P35869). Nature of the experiment: co-IP; endogenous proteins in pre-cleared RIPA lysates (0.5 mg) of A549 wt and AHR-KO clones; capture antibodies against AHR or LRIG1 (1 ug/mL), overnight at 4 °C, protein A magnetic beads; Western blot. Background: A western blot detects proteins with antibodies after separation by electrophoresis.

Turning to “epidermal growth factor receptor (from UniProt P00533 25-1210)”, the binding entry is “binds”.

B1: leucine-rich repeats and immunoglobulin-like domains 1 (protein, UniProt Q96JA1 35-1093)
chain: AGPRAPCAAACTCAGDSLDCGGRGLAALPGDLPSWTRSLNLSYNKLSEIDPAGFEDLPNLQEVYLNNNELTAVPSLGAASSHVVSLFLQHNKIRSVEGSQLKAYLSLEVLDLSLNNITEVRNTCFPHGPPIKELNLAGNRIGTLELGAFDGLSRSLLTLRLSKNRITQLPVRAFKLPRLTQLDLNRNRIRLIEGLTFQGLNSLEVLKLQRNNISKLTDGAFWGLSKMHVLHLEYNSLVEVNSGSLYGLTALHQLHLSNNSIARIHRKGWSFCQKLHELVLSFNNLTRLDEESLAELSSLSVLRLSHNSISHIAEGAFKGLRSLRVLDLDHNEISGTIEDTSGAFSGLDSLSKLTLFGNKIKSVAKRAFSGLEGLEHLNLGGNAIRSVQFDAFVKMKNLKELHISSDSFLCDCQLKWLPPWLIGRMLQAFVTATCAHPESLKGQSIFSVPPESFVCDDFLKPQIITQPETTMAMVGKDIRFTCSAASSSSSPMTFAWKKDNEVLTNADMENFVHVHAQDGEVMEYTTILHLRQVTFGHEGRYQCVITNHFGSTYSHKARLTVNVLPSFTKTPHDITIRTTTMARLECAATGHPNPQIAWQKDGGTDFPAARERRMHVMPDDDVFFITDVKIDDAGVYSCTAQNSAGSISANATLTVLETPSLVVPLEDRVVSVGETVALQCKATGNPPPRITWFKGDRPLSLTERHHLTPDNQLLVVQNVVAEDAGRYTCEMSNTLGTERAHSQLSVLPAAGCRKDGTTVGIFTIAVVSSIVLTSLVWVCIIYQTRKKSEEYSVTNTDETVVPPDVPSYLSSQGTLSDRQETVVRTEGGPQANGHIESNGVCPRDASHFPEPDTHSVACRQPKLCAGSAYHKEPWKAMEKAEGTPGPHKMEHGGRVVCSDCNTEVDCYSRGQAFHPQPVSRDSAQPSAPNGPEPGGSDQEHSPHHQCSRTAAGSCPECQGSLYPSNHDRMLTAVKKKPMASLDGKGDSSWTLARLYHPDSTELQPASSLTSGSPERAEAQYLLVSNGHLPKACDASPESTPLTGQLPGKQRVPLLLAPKS
In the case of B1, the binding entry is “binds”.
